Experimental data from PubChem BioAssay AID493014 (National Center for Advancing Translational Sciences (NCATS), 2011).
This is one part of the list. Further columns of the screen follow, without active or inactive calls. Compounds called inactive in the main read-out are mostly missing here. The note in brackets gives the kind of curve behind each potency; many fits are weak.

Assay: qHTS Assay to Find Inhibitors of Chronic Active B-Cell Receptor Signaling
Details: ABC-DLBCL IkBa-CBG/CBR reporter, luminescence ratio (green luciferase fused to IkBa over red control in TMD8 lymphoma cells), 4 h
Outline: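 Doxycycline induced both beetle luciferases in TMD8 lymphoma cells; IKK-driven degradation limits the IkappaBalpha-fused green signal, while red luminescence normalises for cell number and nonspecific effects. Compounds tested up to 46 uM, 4 hrs.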

[1] = measured here: CBR red luminescence, cell number
[2] = measured here: IkBa-CBG green luminescence

| SMILES | AC50 [1] | AC50 [2] |
| --- | --- | --- |
| Oc1ccc(Br)cc1/C=N/n1cnc2ccccc21 | 2.51 µM [rising, partial curve, poor fit] | – |
| O=C(CC1C(=O)Nc2ccccc2N1CC(=O)N1CCCC1)Nc1ccc(Br)cc1 (stereo not drawn) | 20.6 µM [falling, partial curve] | – |
| Cn1c(=O)c2c(nc(N/N=C3\CCCc4ccccc43)n2Cc2ccc(F)cc2)n(C)c1=O | 20.6 µM [falling, partial curve, poor fit] | – |
| Cc1cc(C)nc(Nc2ccc(C(=O)O)cc2)n1 | 1.64 µM [falling, full curve] | – |
| CCCCC(=O)Nc1nnc(CCOC)s1 | 35.5 µM [falling, single point] | – |
| CCCCCCS(=O)Cc1ccccc1 (stereo not drawn) | 0.731 µM [rising, full curve, poor fit] | – |
| CN1CCN(C(=O)CCC(=O)c2ccc(F)cc2)CC1 | 32.6 µM [rising, single point] | – |
| c1ccc(C2=Nn3c(nnc3-c3n[nH]c4c3CCC4)SC2)cc1 | – | 11.2 µM [falling, partial curve] |
| Cc1c(C(=O)N/N=C/c2cccnc2)sc(N)c1C#N | 15.8 µM [falling, partial curve] | – |
| CCN1/C(=C\C(=S)Nc2ccccc2)Sc2ccccc21 | 14.1 µM [falling, partial curve] | – |
| CCOC(=O)C1CCCN(C(=O)c2sc3nc(-c4ccc(F)cc4)cn3c2C)C1 (stereo not drawn) | 4.47 µM [falling, partial curve, poor fit] | – |
| CCC(Sc1nc2cc(OC)c(OC)cc2c(=O)n1CCc1ccc(S(N)(=O)=O)cc1)C(=O)NCCOC (stereo not drawn) | 3.55 µM [rising, single point] | – |
| Nc1nc(CCl)nc(Nc2ccccc2)n1 | 3.98 µM [falling, partial curve, poor fit] | – |
| c1cncc(Nc2nc(-c3cccs3)cs2)c1 | 14.6 µM [rising, single point] | – |
| CCN(CC)S(=O)(=O)c1cc(NC(=O)COC(=O)CCC(=O)c2ccc(F)cc2)ccc1C | 6.51 µM [rising, single point] | – |
| Cc1ccc(S(=O)(=O)N2CCOCC2)cc1NC(=O)COC(=O)CSc1ccc(Br)cc1C | – | 32.6 µM [rising, partial curve, poor fit] |
| CC1CCCN(C(=O)CCc2ccccc2)C1 (stereo not drawn) | 4.11 µM [rising, partial curve, poor fit] | – |
| O=C(O)C1CC=CCC1C(=O)Nc1ccccc1 (stereo not drawn) | 6.51 µM [falling, single point] | – |
| COc1ccc2cc(CCNC(=O)c3ccc(Br)o3)c(=O)[nH]c2c1 | 0.00411 µM [rising, full curve, poor fit] | – |
| O=C(O)CSc1nnc(NC(=O)c2ccc3c(c2)OCO3)s1 | 10 µM [falling, partial curve] | – |
| CCOc1cccc(/C=C/c2ccc3cccc(O)c3n2)c1O | 25.1 µM [rising, single point] | 17.8 µM [falling, single point] |
| Cc1ccc(OCC(=O)Nc2ccc3c(c2)OC(F)(F)O3)c([N+](=O)[O-])n1 | 0.366 µM [rising, full curve, poor fit] | – |

| SMILES | AC50 [1] | AC50 [2] |
| --- | --- | --- |
| C/C(=N\O)C(C)(C)Nc1ccccc1F | 5.01 µM [rising, partial curve, poor fit] | – |
| Cc1cc(C)cc(OCC(O)CN2CCN(C(=O)c3ccco3)CC2)c1 (stereo not drawn) | 5.62 µM [rising, partial curve, poor fit] | – |
| O=C(C1Cc2ccccc2CN1C(=O)c1ccccc1)N1CCN(c2ccccc2)CC1 (stereo not drawn) | 15.8 µM [falling, single point] | – |
| O=C(CSc1ccc(-c2ccccn2)nn1)c1ccccc1 | 35.5 µM [falling, single point] | – |
| O=C(NC(=S)Nc1ccccc1N1CCCC1)c1ccccc1Br | 0.891 µM [rising, full curve] | – |
| O=C1C=C(N2CCOCC2)c2ccccc2C1=O | 6.31 µM [falling, partial curve] | – |
| Cc1ccc(CNc2nc3ccccc3n3nnnc23)cc1 | 9.2 µM [falling, partial curve] | – |
| NS(=O)(=O)c1cc(C(=O)Nc2ccc3c(c2)OCCCO3)ccc1Cl | 3.98 µM [falling, partial curve, poor fit] | – |
| CN(C)CCOCCOc1ccc(Cl)cc1C(C)(C)C | 35.5 µM [falling, single point] | – |
| O=C(Nc1ccc2c(c1)OCCO2)C1CCCN1S(=O)(=O)c1cccc2cccnc12 (stereo not drawn) | 8.2 µM [rising, partial curve, poor fit] | – |
| Cc1ccccc1-n1c(=O)cc(N2CCc3ccccc3C2)[nH]c1=O | 6.51 µM [rising, single point] | – |
| CCC1=NN(C(=O)c2cccc(Br)c2)C(O)(c2ccc(Br)cc2)C1 (stereo not drawn) | 7.31 µM [falling, partial curve] | – |
| CC(/C=C/c1ccco1)=N\NC(=O)c1cc(Cl)ccc1O | 1.26 µM [falling, full curve, poor fit] | – |
| O=C(Nc1ccc(Cl)cc1Cl)c1cc2ccccc2o1 | 0.1 µM [rising, full curve, poor fit] | – |
| COc1cccc(NC(=O)Nc2ccccc2Br)c1 | 3.16 µM [falling, partial curve, poor fit] | – |
| Cc1cc(OCC(=O)NCc2nc(-c3ccccc3)no2)c(C)cc1Br | 10 µM [rising, partial curve, poor fit] | – |
| Cc1n[nH]c(=S)n1/N=C/c1ccccc1OCc1ccc(Cl)cc1 | 2.51 µM [rising, full curve] | – |
| CC1=NCCN1CCNC(=O)Nc1ccc(F)cc1 | 0.112 µM [falling, full curve, poor fit] | – |
| O=C(CN1CCN(Cc2ccccc2)CC1)Nc1cccc(S(=O)(=O)N2CCCCCC2)c1 | 10 µM [falling, partial curve, poor fit] | – |
| CCC(=O)NC(Nc1nc2ccc(C)cc2s1)(C(=O)OC)C(F)(F)F (stereo not drawn) | 29.1 µM [rising, single point] | – |
| COC(=O)C1CCN(C(=O)COC(=O)c2cc([N+](=O)[O-])ccc2N2CCOCC2)CC1 | 11.6 µM [rising, partial curve, poor fit] | – |
| COc1ccc(OC)c(-c2cnc(OC(C)(C)C)nc2OC(C)(C)C)c1 | 18.4 µM [rising, partial curve] | 18.4 µM [falling, partial curve, poor fit] |

Molecules listed so far that contain an aryl thioether with sulfur outside any ring:

| SMILES | AC50 [1] | AC50 [2] |
| --- | --- | --- |
| CCC(Sc1nc2cc(OC)c(OC)cc2c(=O)n1CCc1ccc(S(N)(=O)=O)cc1)C(=O)NCCOC (stereo not drawn) | 3.55 µM [rising, single point] | – |
| Cc1ccc(S(=O)(=O)N2CCOCC2)cc1NC(=O)COC(=O)CSc1ccc(Br)cc1C | – | 32.6 µM [rising, partial curve, poor fit] |
| O=C(O)CSc1nnc(NC(=O)c2ccc3c(c2)OCO3)s1 | 10 µM [falling, partial curve] | – |
| O=C(CSc1ccc(-c2ccccn2)nn1)c1ccccc1 | 35.5 µM [falling, single point] | – |

Continued.

| SMILES | AC50 [1] | AC50 [2] |
| --- | --- | --- |
| CCN(CC)c1ccc(NC(=O)c2ccccc2F)cc1 | 20.6 µM [falling, partial curve] | – |
| c1ccc(N2OCC3Cn4c(nc5ccccc54)C32)cc1 (stereo not drawn) | 3.55 µM [falling, partial curve] | – |
| CC1Cc2cccc3c(O)c(C(=O)c4nn[nH]n4)c(=O)n1c23 (stereo not drawn) | 2.31 µM [rising, full curve, poor fit] | – |
| CCOc1ccc(C)cc1S(=O)(=O)Nc1ccc(Cl)cn1 | 29.1 µM [falling, single point] | – |
| C=CCNC(=O)c1ccccc1NC(=O)c1cccc2ccccc12 | 23.1 µM [rising, single point] | – |
| CCOc1ccc(C(=O)NCC(c2ccco2)N2CCc3ccccc3C2)cc1 (stereo not drawn) | 6.51 µM [rising, single point] | – |
| Cc1ccc2c(c1)=C(c1sc(N(C)c3ccc(O)cc3)nc1O)C(=O)N=2 | 0.891 µM [falling, full curve] | – |
| S=C1SCN(Cc2cccnc2)CN1Cc1ccccc1 | 35.5 µM [falling, single point] | – |
| COC(=O)c1cn(NC(=O)c2ccc3c(c2)OCO3)c(=O)c2ccccc12 | 1.46 µM [rising, partial curve, poor fit] | – |
| O=C(/C=C/c1ccc([N+](=O)[O-])cc1)Nc1cccnc1 | 8.91 µM [falling, partial curve] | – |
| CC(C)CCN1C(=O)c2ccc(C(=O)OCC(=O)N(C)C3CCS(=O)(=O)C3)cc2C1=O (stereo not drawn) | 5.17 µM [falling, partial curve] | – |
| Cc1cc(C)c(C(N)=O)c(SCC(=O)c2cc(C)c(C)cc2C)n1 | 10.3 µM [falling, single point] | – |
| O=C(/C=C/c1cccs1)NCc1ccccc1 | 11.2 µM [falling, partial curve, poor fit] | – |
| COc1cc2c(cc1OC)-c1cc(Nc3ccccc3C)nc(=O)n1CC2 | 0.447 µM [rising, full curve, poor fit] | 10 µM [falling, partial curve] |
| COCCn1c(N)c(S(=O)(=O)c2cccs2)c2nc3ccccc3nc21 | 1.46 µM [falling, partial curve, poor fit] | – |
| CC1CN(C)C(C)CC1NCc1ccc2c(c1)OCO2 (stereo not drawn) | 1.12 µM [falling, partial curve, poor fit] | – |
| O=C(Nc1ccc(F)c(F)c1)c1cc(S(=O)(=O)N2CCc3ccccc32)ccc1F | 10 µM [falling, partial curve] | – |
| CCOc1cc(/C=C2\SC(=O)N(c3ccc(O)cc3)C2=O)ccc1O | 12.6 µM [falling, partial curve] | – |
| CC1=C(C#N)S(=O)(=O)C(C#N)C(c2ccccc2)C1 (stereo not drawn) | 6.31 µM [rising, single point] | – |
| Cc1ccc(-n2nc(C)c3c2OC(N)=C(C#N)C3c2ccco2)cc1 (stereo not drawn) | 35.5 µM [falling, single point] | – |
| Cc1nc(NC(=O)/C=C/c2ccccc2)sc1C(=O)Nc1ccc(Cl)cc1 | 35.5 µM [falling, single point] | – |
